Values from PubChem BioAssay AID1159617 (Peter MacCallum Cancer Centre, 2016)
Test: 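Size and shape changes after knock-down in blood and lymph vessel endothelial cells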 (tertiary re-screen of migration hits). Cell system: human HMBEC blood microvascular and HDLEC lymphatic endothelial cells. Knock-down reagent: siRNA pool against human genes, 40 nM. Measurement: 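Actin stained with phalloidin and imaged; area and length measured per cell, averaged across replicates and expressed as robust z-scores over the whole screen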. Reading the numbers: cell area z-score, HMBEC: higher = larger cells.
The deposit covers 153 reagents; this is a random part of them. 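Values are robust z-scores scaled across the full screen; higher values mean larger or longer cells.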 Further read-outs or replicates are left out here. Reagent sequences are not shown. The record does not give: the time to read-out.

gene | cell area z-score, HMBEC
STK38 | 0.43
PMVK | 5.95
SRMS | 0
CHSY3 | -0.78
MPP3 | 0.83
PLPP3 | -1.25
STK36 | -0.41
ABCC3 | 0.36
CHST5 | 0.82
GPR152 | 0.08
PDGFRB | 0.85
DBP | -0.16
MESP2 | -0.18
FBXO4 | -0.86
APBA3 | -0.57
TFAP2C | 1.52
KATNIP | -0.76
HS3ST1 | -0.12
CASK | -0.49
CHST8 | 0.65
PRKG2 | -1.06
SMURF2 | 1.1
SLC31A2 | 0.39
LYPLA2 | -2.22
MICAL2 | 0.29
LPL | 0.14
TUBA1B | -0.44
ANGPT2 | -0.04
TNFRSF8 | 0.03
NXF1 | -0.37
MTARC1 | -1.17
EFNA3 | -0.44
FLCN | 1.75
GBA1 | -1.17
UHMK1 | -1.59
ETNK2 | 0.69
PLPP1 | -1.22
P2RX2 | -1.01
PI4KA | -1.17
EPOR | 2.03
CARD10 | -0.07
BTK | -0.15
USP25 | 0.58
S1PR1 | 1.83
ITPKA | -1.58
PLCG1 | -0.05
SCGB1C1 | -0.44
TMIGD2 | -0.4
STYK1 | -0.46
PPP1CA | -1.17
RELT | -0.95
PSEN2 | 0.17
UBE2O | 0.03
FCRL2 | -1.52
KANSL1 | 1.2
CEPT1 | 1.38
PTH2 | -0.85

Ordered by “cell area z-score, HMBEC” (lowest first): 3 of the entries above.
gene | cell area z-score, HMBEC
LYPLA2 | -2.22
SLC31A2 | 0.39
SMURF2 | 1.1
